The values that follow come from paper PMC6393520.

No constants are given. Whether binding was seen depends on the method and setting. Binding seen in cells or lysates may run through a third protein. Some entries that bind do so weakly or less than the wild type.

In the experiment the target is T1, ISL1 (as in the co-immunoprecipitation of Fig. 6f) (UniProt P61371).
T1 sequence: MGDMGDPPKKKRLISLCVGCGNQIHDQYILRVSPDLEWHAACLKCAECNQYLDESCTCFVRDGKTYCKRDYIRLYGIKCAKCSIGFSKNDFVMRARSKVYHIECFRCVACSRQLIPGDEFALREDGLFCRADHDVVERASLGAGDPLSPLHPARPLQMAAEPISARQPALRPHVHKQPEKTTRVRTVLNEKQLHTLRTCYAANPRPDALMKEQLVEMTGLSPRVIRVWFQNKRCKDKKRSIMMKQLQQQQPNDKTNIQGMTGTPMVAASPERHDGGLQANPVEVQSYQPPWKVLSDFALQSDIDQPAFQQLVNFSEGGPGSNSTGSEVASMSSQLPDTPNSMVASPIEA
The experiment can be described thus: co-IP; co-immunoprecipitation analysis, normal IgG as the negative control; cells and precipitating antibody not stated.

B1: SETD7 (as in the co-immunoprecipitation of Fig. 6f) (protein, UniProt Q8WTS6 1-366)
chain: MDSDDEMVEEAVEGHLDDDGLPHGFCTVTYSSTDRFEGNFVHGEKNGRGKFFFFDGSTLEGYYVDDALQGQGVYTYEDGGVLQGTYVDGELNGPAQEYDTDGRLIFKGQYKDNIRHGVCWIYYPDGGSLVGEVNEDGEMTGEKIAYVYPDERTALYGKFIDGEMIEGKLATLMSTEEGRPHFELMPGNSVYHFDKSTSSCISTNALLPDPYESERVYVAESLISSAGEGLFSKVAVGPNTVMSFYNGVRITHQEVDSRDWALNGNTLSLDEETVIDVPEPYNHVSKYCASLGHKANHSFTPNCIYDMFVHPRFGPIKCIRTLRAVEADEELTVAYGYDHSPPGKSGPEAPEWYQVELKAFQATQQK
Take B1: the binding result is listed as “binds”.
